Measured values reported in the supplement of paper PMC10849652.
This is one part of the list.

Amino acid sequences for entries named in this document (tags omitted). A change or cut given only in a name is not applied to a line headed by its entry.
UniProt Q712K3: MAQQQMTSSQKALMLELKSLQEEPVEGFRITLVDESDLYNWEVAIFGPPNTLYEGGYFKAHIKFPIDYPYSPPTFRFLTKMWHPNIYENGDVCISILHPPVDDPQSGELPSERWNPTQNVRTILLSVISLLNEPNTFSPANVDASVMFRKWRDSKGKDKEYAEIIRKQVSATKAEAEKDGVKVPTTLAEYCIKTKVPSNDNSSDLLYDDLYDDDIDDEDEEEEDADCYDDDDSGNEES
UniProt Q6PGP7, whole entry, looked up: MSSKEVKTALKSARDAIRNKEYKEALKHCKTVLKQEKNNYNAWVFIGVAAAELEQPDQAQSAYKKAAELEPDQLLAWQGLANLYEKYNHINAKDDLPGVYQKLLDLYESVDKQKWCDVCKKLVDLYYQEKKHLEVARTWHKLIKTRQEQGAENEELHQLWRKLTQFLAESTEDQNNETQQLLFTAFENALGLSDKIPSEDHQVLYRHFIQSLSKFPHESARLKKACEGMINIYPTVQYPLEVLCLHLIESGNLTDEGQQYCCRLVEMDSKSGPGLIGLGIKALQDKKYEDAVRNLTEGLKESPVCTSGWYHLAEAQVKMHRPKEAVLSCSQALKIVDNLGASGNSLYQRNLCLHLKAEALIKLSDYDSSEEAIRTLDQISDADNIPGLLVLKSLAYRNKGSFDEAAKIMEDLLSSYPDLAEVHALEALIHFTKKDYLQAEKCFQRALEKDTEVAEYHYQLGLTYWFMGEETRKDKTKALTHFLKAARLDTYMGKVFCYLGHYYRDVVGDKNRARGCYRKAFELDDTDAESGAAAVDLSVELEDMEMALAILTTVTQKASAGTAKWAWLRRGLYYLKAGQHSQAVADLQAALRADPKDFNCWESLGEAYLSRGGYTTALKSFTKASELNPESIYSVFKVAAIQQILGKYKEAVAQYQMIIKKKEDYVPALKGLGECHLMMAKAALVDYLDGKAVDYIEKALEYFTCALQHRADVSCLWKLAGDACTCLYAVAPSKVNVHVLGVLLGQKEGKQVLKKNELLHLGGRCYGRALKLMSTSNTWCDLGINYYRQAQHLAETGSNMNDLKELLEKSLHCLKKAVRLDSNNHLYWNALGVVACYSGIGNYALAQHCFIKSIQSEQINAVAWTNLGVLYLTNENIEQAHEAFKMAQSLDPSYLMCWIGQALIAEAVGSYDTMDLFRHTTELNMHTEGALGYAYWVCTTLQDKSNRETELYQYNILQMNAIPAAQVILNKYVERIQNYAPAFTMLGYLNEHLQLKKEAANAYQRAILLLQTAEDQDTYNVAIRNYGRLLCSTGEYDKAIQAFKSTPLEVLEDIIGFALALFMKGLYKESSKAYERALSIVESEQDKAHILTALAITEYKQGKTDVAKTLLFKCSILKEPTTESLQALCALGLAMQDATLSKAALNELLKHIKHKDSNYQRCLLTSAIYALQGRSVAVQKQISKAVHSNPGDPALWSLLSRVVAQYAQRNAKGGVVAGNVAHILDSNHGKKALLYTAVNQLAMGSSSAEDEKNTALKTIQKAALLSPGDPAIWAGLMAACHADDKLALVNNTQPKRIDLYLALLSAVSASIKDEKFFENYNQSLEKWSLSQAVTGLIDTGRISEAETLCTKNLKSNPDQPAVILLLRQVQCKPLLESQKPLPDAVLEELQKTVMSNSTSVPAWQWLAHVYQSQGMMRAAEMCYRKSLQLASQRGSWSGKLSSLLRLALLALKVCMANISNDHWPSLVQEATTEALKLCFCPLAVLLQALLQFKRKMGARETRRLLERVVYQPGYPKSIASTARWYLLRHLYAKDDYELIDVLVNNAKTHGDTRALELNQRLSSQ
UniProt Q9UJ04: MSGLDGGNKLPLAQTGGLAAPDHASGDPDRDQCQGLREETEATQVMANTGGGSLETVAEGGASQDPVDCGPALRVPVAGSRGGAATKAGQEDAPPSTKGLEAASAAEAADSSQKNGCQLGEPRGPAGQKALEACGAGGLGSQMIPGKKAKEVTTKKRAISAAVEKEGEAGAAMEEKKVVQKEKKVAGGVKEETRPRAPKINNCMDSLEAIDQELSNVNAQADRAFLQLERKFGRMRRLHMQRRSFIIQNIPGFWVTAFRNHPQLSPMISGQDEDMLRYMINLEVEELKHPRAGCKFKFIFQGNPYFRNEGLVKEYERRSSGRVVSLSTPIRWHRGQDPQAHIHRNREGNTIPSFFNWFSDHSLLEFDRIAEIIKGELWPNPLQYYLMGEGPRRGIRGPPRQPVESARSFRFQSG
UniProt Q8WUA8: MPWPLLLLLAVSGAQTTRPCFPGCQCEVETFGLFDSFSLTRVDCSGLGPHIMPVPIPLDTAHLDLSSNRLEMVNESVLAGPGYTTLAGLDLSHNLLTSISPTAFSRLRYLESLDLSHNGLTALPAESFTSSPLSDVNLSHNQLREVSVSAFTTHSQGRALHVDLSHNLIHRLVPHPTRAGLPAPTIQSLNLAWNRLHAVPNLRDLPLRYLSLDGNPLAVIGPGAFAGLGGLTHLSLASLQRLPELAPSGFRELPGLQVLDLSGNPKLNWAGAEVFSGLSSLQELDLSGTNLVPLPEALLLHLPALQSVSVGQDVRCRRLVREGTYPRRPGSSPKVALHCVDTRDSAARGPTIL
UniProt Q5BVD1: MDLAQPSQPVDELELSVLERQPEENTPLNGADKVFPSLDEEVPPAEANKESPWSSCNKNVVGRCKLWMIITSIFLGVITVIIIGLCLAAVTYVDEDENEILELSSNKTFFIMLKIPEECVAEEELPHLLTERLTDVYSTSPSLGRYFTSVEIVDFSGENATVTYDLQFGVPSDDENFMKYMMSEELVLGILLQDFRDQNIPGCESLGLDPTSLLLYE
UniProt Q5VYS8: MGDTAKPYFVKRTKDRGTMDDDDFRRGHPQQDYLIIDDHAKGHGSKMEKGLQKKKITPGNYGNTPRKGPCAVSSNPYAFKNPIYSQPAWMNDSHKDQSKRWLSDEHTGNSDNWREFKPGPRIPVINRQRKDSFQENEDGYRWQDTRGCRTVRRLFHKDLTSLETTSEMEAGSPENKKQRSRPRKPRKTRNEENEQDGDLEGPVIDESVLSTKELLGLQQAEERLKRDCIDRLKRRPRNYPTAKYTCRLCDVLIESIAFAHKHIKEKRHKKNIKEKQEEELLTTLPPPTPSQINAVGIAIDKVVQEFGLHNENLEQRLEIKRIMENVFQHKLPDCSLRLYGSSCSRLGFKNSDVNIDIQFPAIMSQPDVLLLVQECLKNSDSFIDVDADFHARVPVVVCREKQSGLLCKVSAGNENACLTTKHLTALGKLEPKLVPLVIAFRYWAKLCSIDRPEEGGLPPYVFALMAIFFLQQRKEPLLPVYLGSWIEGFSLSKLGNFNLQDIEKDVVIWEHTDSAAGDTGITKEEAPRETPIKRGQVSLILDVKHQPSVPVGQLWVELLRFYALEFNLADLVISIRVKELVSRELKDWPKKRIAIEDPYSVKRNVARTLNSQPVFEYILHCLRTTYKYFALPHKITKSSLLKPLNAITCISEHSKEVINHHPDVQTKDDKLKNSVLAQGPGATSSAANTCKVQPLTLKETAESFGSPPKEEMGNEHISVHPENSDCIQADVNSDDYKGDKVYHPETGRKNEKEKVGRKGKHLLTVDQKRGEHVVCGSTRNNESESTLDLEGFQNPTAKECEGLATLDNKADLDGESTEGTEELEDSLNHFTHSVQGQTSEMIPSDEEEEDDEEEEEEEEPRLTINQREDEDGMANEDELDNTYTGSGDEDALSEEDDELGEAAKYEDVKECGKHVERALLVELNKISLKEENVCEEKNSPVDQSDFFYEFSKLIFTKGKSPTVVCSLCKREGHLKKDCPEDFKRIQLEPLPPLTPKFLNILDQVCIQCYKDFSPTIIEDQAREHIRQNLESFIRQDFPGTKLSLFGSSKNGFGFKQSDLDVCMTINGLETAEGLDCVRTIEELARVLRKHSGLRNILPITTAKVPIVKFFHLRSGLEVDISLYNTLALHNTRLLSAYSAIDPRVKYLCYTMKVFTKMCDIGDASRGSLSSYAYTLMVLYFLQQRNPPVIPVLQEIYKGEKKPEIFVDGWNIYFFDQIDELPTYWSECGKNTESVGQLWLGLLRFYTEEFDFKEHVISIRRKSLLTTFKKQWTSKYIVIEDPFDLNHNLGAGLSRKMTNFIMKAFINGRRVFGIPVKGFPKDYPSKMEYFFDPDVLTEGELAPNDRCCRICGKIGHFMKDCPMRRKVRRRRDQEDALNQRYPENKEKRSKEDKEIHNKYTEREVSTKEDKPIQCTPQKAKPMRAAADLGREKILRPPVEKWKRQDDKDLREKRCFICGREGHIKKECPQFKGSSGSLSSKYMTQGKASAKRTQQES
UniProt Q9H892: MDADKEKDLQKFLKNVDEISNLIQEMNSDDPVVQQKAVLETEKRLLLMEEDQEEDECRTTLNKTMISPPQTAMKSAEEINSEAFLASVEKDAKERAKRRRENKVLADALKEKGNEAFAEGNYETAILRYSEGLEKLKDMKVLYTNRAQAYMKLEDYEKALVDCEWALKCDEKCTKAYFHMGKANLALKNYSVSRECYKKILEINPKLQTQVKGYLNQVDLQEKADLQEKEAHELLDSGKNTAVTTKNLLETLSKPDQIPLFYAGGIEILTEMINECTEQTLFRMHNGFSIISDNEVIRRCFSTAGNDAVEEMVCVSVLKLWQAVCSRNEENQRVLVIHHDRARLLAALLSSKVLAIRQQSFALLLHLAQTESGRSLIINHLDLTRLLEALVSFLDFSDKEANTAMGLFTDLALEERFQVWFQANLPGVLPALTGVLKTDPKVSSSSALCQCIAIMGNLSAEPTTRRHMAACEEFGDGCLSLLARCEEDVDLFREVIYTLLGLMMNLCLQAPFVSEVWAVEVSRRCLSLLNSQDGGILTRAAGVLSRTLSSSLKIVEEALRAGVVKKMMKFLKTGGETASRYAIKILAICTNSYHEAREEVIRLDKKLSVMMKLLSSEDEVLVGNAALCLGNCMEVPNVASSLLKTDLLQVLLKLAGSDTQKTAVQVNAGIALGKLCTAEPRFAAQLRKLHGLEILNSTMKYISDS
UniProt Q96ET8: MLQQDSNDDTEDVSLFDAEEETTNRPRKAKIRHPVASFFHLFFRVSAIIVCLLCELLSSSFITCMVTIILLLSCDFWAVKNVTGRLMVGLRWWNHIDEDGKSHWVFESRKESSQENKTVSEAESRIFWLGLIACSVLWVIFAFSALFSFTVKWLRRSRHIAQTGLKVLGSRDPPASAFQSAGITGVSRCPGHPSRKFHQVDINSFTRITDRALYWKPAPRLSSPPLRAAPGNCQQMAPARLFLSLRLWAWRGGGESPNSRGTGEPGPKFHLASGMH
UniProt Q9H0U9: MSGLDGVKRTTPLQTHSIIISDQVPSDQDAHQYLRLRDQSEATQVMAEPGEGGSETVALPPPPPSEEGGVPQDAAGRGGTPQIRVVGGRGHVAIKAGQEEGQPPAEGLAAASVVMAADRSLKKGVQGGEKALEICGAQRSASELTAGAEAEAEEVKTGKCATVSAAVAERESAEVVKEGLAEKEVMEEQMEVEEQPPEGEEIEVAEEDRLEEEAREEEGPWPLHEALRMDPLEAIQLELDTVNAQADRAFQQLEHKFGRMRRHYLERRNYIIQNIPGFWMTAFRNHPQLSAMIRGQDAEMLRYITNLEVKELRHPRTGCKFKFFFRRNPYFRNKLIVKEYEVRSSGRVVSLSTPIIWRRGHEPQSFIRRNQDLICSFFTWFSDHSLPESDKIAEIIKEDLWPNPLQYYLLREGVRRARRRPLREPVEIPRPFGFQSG

Legend:
Assay in all cases: log2 fold change, soluble protein after heating vs DMSO (PISA); higher = thermal stabilisation; K562 cells, 10 uM, 30 min; active = over 0.2 and 3.5 SD of the protein, either way, in both replicates (recomputed)
[1] = compound: C1=CC=C(C=C1)[C@H](COC2=CC3=C(C=C2)NC(=O)N3)NC(=O)C4=CC=CN(C4=O)CC5=CC(=C(C=C5)F)F
Summary of the method: (§1)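 K562 cells at 2×10^6 cells/mL were exposed to 10 μM compound for 30 min, then aliquots were heated for 3 min across 48°C-58°C, pooled, and extracted in PBS containing 0.5% NP-40 at 4°C. The supernatant after 21,000xg for 90 min was taken as soluble protein and measured by TMTpro 16plex LC-MS/MS with channel sums equalised. Thermal stability is reported relative to control samples, with values from duplicates. Fold changes are given on a log2 scale.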

[2] = compound: CC1=C(SC2=C1C(=N[C@H](C3=NN=C(N32)C)CC(=O)N)C4=CC=C(C=C4)Cl)C
Summary of the method: as §1

[3] = compound: CC1=C2C(=CC=C1)N=C(N(C2=O)C3=CC=CC=C3C)CN4C=NC5=C(N=CN=C54)N
Summary of the method: as §1

[4] = compound: Cc1sc2c(c1C)C(c1ccc(Cl)cc1)=N[C@@H](CC(=O)OC(C)(C)C)c1nnc(C)n1-2
Summary of the method: as §1

[5] = compound: c1ccc([C@@H]2C[C@H]2NC2CCNCC2)cc1
Summary of the method: as §1

Measured: log2 fold change

UBE2R2 (UniProt Q712K3)
inactive: [1] 0.007 | [2] 0.024 | [3] 0.127 | [4] -0.035 | [5] 0.013

TTC37 (UniProt Q6PGP7)
inactive: [1] 0.042 | [3] 0.177

TSPYL4 (UniProt Q9UJ04)
inactive: [3] 0.268

TSKU (UniProt Q8WUA8)
inactive: [2] 0.048 | [3] -0.03 | [4] 0.231 | [5] -0.151

TTMP isoform 3 (UniProt Q5BVD1)
inactive: [1] 0.072 | [2] 0.401 | [4] 0.06 | [5] -0.042

TUT7 (UniProt Q5VYS8)
inactive: [2] 0.025 | [4] 0.115 | [5] 0.033

TTC12 isoform 2 (UniProt Q9H892)
inactive: [1] 0.086 | [2] -0.163 | [4] -0.149 | [5] 0.125

TVP23C (UniProt Q96ET8)
inactive: [2] 0.048 | [3] 0.041 | [4] 0.029 | [5] 0.086

Quoted from the entries so far (2 entries):
TTC12 isoform 2 (UniProt Q9H892)
inactive: [1] 0.086 | [2] -0.163 | [4] -0.149 | [5] 0.125

TVP23C (UniProt Q96ET8)
inactive: [2] 0.048 | [3] 0.041 | [4] 0.029 | [5] 0.086

Going on with the list:

TSPYL1 (UniProt Q9H0U9)
inactive: [2] -0.008 | [5] -0.022

UBAP2L (UniProt F8W726)
inactive: [1] -0.05 | [4] 0.046
